Experimental data reported in paper PMC8270898.
No constants are given. Whether binding was seen depends on the method and setting. In cells and extracts the contact can be indirect. Some binding calls cover weakened binding; strength is not graded here.

Amino acid sequences for entries named in this document (tags omitted).
UniProt Q8N6T7: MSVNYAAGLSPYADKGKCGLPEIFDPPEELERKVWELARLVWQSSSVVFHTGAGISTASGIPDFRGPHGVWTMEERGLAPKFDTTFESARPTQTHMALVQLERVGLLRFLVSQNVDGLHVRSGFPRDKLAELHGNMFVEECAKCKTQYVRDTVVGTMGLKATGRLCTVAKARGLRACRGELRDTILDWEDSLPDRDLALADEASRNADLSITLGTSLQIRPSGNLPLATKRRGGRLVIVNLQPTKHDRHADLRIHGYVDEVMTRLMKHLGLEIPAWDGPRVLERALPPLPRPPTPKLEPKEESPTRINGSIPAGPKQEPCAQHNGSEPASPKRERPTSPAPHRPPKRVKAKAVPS
UniProt Q9H1A4: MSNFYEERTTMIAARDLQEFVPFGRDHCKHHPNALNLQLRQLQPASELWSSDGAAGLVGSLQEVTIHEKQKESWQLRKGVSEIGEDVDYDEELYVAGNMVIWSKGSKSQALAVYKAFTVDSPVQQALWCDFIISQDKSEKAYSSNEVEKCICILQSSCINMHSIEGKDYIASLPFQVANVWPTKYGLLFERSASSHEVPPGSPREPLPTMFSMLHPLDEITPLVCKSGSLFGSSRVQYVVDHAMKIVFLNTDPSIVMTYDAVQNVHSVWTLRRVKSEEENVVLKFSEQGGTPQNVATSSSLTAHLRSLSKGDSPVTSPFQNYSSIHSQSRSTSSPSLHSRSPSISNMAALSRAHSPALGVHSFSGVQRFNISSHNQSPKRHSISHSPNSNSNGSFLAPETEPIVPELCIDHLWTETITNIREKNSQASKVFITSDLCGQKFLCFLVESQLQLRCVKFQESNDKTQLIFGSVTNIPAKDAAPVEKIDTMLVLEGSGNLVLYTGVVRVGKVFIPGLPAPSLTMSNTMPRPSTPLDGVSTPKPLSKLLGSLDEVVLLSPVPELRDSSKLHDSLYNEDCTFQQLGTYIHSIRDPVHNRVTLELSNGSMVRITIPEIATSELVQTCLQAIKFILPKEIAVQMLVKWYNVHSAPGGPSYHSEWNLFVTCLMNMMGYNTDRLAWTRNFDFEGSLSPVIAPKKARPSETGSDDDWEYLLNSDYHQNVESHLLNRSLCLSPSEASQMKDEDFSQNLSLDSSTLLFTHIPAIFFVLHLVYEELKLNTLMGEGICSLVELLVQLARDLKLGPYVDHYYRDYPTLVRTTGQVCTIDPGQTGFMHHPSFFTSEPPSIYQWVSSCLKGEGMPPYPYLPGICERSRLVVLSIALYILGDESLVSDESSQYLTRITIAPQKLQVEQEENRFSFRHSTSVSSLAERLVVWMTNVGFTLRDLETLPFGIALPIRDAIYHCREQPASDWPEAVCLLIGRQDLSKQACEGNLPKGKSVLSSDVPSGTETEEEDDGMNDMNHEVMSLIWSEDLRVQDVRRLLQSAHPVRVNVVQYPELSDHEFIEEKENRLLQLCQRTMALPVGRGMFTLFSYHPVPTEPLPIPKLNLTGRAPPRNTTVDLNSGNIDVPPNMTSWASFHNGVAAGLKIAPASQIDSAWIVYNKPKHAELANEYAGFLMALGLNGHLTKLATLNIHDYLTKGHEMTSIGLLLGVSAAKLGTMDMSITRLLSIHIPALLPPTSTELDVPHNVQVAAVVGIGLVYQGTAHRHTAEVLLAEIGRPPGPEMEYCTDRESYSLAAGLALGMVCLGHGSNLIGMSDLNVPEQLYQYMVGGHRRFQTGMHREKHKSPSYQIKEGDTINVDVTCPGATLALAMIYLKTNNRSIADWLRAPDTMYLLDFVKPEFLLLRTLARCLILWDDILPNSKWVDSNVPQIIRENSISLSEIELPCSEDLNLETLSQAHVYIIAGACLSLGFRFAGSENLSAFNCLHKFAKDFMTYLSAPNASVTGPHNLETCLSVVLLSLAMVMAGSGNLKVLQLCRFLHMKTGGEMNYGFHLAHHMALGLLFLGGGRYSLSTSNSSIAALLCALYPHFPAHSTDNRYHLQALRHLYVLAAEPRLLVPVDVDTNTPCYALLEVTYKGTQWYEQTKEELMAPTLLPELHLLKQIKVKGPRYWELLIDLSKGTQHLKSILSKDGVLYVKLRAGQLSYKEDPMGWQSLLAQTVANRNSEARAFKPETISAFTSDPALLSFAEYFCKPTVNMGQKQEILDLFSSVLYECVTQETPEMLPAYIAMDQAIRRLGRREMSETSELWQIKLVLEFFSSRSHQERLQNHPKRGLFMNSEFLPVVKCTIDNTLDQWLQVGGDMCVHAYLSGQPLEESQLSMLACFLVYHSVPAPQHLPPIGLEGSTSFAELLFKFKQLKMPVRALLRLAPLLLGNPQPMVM
UniProt Q12834: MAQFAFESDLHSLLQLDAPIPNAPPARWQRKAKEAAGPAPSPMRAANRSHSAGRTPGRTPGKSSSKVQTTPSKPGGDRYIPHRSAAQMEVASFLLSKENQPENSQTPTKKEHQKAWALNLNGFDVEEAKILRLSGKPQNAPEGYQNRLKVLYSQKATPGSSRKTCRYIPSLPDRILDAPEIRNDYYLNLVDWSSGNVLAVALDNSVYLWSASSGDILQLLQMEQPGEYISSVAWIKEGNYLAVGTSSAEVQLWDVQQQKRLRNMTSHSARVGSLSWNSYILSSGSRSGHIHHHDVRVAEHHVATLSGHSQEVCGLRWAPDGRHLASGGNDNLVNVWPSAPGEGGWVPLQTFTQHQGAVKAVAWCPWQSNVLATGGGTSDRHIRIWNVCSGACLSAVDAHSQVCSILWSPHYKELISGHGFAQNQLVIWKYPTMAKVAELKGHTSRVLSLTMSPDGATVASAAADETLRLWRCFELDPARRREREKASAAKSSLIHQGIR
UniProt Q9UM11: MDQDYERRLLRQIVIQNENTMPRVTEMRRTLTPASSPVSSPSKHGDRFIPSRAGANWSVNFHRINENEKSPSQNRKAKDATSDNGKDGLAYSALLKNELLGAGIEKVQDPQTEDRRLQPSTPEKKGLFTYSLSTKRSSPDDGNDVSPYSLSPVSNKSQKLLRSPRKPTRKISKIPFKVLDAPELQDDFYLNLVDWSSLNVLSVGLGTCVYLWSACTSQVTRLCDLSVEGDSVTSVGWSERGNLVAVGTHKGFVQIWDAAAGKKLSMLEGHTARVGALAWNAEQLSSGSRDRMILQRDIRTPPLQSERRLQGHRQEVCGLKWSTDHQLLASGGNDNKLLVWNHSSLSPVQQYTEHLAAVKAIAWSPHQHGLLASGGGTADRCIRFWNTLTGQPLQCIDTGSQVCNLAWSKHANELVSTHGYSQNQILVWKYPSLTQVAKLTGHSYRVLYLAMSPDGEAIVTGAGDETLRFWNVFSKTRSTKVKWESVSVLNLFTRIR

What was measured:
[1] = target: SIRT6 (human (endogenous in HeLa)) (UniProt Q8N6T7); assay: co-IP; lysates of asynchronous HeLa cells; endogenous proteins precipitated with anti-SIRT6, anti-APC1, anti-CDC20 or anti-CDH1 antibody or normal IgG, protein A or G agarose, 4 °C; immunoblotting
[2] = target: APC1 (human (endogenous in HeLa)) (UniProt Q9H1A4); assay: as above
[3] = target: CDC20 (human (endogenous in HeLa)) (UniProt Q12834); assay: as above
[4] = target: CDH1 (human (endogenous in HeLa)) (UniProt Q9UM11); assay: as above
CDC20-HA = CDC20-HA (UniProt Q12834); assay: co-IP; lysates of HeLa cells stably expressing CDC20-HA or CDH1-HA along with SIRT6-FLAG; anti-HA beads overnight at 4 °C; immunoblotting; protein A/G as unspecific control
CDH1-HA = CDH1-HA (UniProt Q9UM11); assay: as above

APC1 (from UniProt Q9H1A4 1-1944)
binding [1]: binds

CDC20 (from UniProt Q12834 1-499)
binding [1]: binds

CDH1 (from UniProt Q9UM11 1-496)
binding [1]: binds

SIRT6 (from UniProt Q8N6T7 1-355)
binding [2]: binds
binding [3]: binds
binding [4]: binds

SIRT6-FLAG (from UniProt Q8N6T7 1-355)
binding (CDC20-HA): binds
binding (CDH1-HA): binds
